Data published in PMC12314576, “The Actin‐Binding Prolyl‐Isomerase Par17 Sustains Its Substrate Selectivity by Interdomain Allostery” (Proteins, 2025).
Results are given in words; binding and its absence hold for the method and conditions named. Some binding calls cover weakened binding; strength is not graded here.

What was measured:
Test in all cases: peptide or protein array; 12-mers of β-actin (aa 1–375) shifted by 2 residues, SPOT-synthesised on cellulose membranes; blocked with 5% BSA in PBS; incubated overnight with Atto594-labeled Par14 or Par17; fluorescence imaging; runs of three or more spots classified as possible binding sites; both purified
[1] = target: β-actin peptides Ile345–Tyr362 (spots M9–P9) (UniProt P60709)
[2] = target: β-actin peptides Glu167–Gly182 (spots D5–F5) (UniProt P60709)
[3] = target: β-actin peptides Leu299–Glu316 (spots J8–M8) (UniProt P60709)
[4] = target: β-actin peptides Tyr53–Pro70 (spots G2–J2) (UniProt P60709)
[5] = target: β-actin peptides Glu83–Glu100 (spots B3–E3) (UniProt P60709)

- binding [1]: binds
- binding [2]: binds
- binding [3]: binds
- binding [4]: binds
- binding [5]: binds
Substance: Atto594-labeled Par17 (from UniProt Q9Y237-2 1-156) (enzyme)
